According to patent US20150038668A1, “Branched Polyesters Based On Citric Acid, Their Preparation And Use” (BASF SE, priority 2010, published 2015):
Values after ≈ are worked out from the molar mass of the structure shown.

Assay: physchem
Settings: thermodynamic from solid
Experimental: To increase the solubility of the low-solubility active ingredients, 40 ml of a 15% polymer solution (in DI water) were prepared. […] If the added active ingredient dissolved, further active ingredient was added, to supersaturation, followed by stirring for a further 72 hours. The resulting suspension was filtered through a 0.45 μm membrane filter and the dissolved fraction of active ingredient was determined by means of UV/Vis spectroscopy. The same method was also carried for the active ingredients alone, in order to determine the solubility of the pure active ingredient and to be able to determine the improvement through salt formation. For comparison, the solubility in 0.1 normal HCl as well was ascertained, representing the solubility of the hydrochloride salt of the corresponding base.

solubility thermodynamic at 72 h (simulated gastric fluid): 1740 µg/mL (≈ 4.72 mM)
solubility thermodynamic at 72 h (water): < 10 µg/mL
SMILES: C(=C\c1ccccc1)/CN1CCN(C(c2ccccc2)c2ccccc2)CC1 [Cinnarizine, cinnarizine]
